# Among all 390,000 compounds or so, about 910 (0.23%) were called active. Inconclusive means that the source gave no clear call. Such entries were picked first, then a sample of the others. Calls come from the whole dose curve; as a rule, active = well fitted inhibition curve with a large enough effect; inconclusive = small, poorly fitted or top-dose-only effect; inactive = no such curve, though single readings can be large or run the other way. Potencies beside an inconclusive call are fits to weak or partial responses and may not hold up.
# Chains of the proteins cited; added tags and fusions are not shown. Lines headed by an entry give the natural chain unless they say otherwise; changes in a name come on top.
# UniProt O94782: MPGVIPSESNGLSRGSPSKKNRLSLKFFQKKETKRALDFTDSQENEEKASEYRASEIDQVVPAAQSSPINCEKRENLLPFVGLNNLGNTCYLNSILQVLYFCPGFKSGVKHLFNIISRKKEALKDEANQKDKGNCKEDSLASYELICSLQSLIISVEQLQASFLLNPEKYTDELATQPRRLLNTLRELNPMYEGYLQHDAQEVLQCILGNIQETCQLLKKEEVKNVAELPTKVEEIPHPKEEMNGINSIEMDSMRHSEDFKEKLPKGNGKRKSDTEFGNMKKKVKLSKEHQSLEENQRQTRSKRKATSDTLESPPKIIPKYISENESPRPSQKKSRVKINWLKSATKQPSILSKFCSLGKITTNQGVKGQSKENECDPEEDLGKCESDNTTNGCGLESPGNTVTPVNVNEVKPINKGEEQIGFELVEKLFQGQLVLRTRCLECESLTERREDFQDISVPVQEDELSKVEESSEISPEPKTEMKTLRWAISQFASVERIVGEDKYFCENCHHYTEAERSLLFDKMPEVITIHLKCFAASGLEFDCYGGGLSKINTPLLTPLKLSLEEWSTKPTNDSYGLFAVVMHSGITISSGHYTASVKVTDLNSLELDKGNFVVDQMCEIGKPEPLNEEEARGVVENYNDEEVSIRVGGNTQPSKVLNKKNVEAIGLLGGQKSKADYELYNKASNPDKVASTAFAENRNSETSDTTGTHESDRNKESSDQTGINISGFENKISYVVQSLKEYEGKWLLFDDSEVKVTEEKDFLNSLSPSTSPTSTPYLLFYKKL
# Target: Ubiquitin carboxyl-terminal hydrolase 1 (Homo sapiens) (UniProt O94782)
# Assay: Inhibitors of USP1/UAF1: Primary Screen; note: nearly all actives have a fitted effect of over 60% in size
# Settings: recombinant USP1/UAF1, Ub-Rhodamine cleavage fluorescence; series mostly up to 57.1 µM
# In short: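 High-throughput fluorogenic screen: 1nM USP1/UAF1 complex, Ub-Rho substrate 150nM final, 50mM HEPES pH 7.8 with 0.5mM EDTA, 0.1 mg/ml BSA, 1mM TCEP and 0.01% Tween-20.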
# Potency is the fitted concentration of half-maximal effect.
row,Compound,Potency
1,COc1ccc(/C=C2\SC(c3ccc(C)cc3)=NC2=O)cc1OC,active: 15.8 µM
2,Cc1ccc(C(=O)Nc2ccc(Cl)cc2C)c(Cl)c1,"inconclusive: 8.91 µM [inhibitor, single point]"
3,COc1cc(C(=O)Nc2cc3c(cc2N2CCCCC2)n(C)c(=O)n3C)cc(OC)c1OC,"inconclusive: 44.7 µM [inhibitor, partial curve, poor fit]"
4,CC(Oc1ccc2c3c(c(=O)oc2c1)CCCC3)C(=O)NC1CC(C)(C)NC(C)(C)C1 (configuration not stated),"inconclusive: 17.8 µM [inhibitor, partial curve, poor fit]"
5,O=C(Nc1ccc(CN2CCOCC2)cc1)c1ccc(Cl)cc1,inactive
6,COc1cc(C(=S)N2CCOCC2)cc(OC)c1OC(=O)c1ccc(F)cc1,inactive
7,N#CC(C#N)=C1C=C2C=C(N3CCCCCC3)CCC2CC1 (configuration not stated),active: 3.98 µM
8,c1ccc(-c2onc(-c3ccco3)c2-c2ccc3c(c2)OCO3)cc1,"inconclusive: 22.4 µM [inhibitor, partial curve]"
9,O=[N+]([O-])c1ccc(/C=C/c2ccncc2)cc1,"inconclusive: 50.1 µM [inhibitor, partial curve, poor fit]"
10,Clc1ccc(C2=CSC3=Nc4cccc5cccc(c45)N23)cc1,"inconclusive: 39.8 µM [inhibitor, partial curve]"
11,CC(=O)Nc1ccc(Nc2ccc3c4c(cc(=O)n3C)-c3ccccc3C(=O)c24)cc1,inactive
12,COc1ccc(S(=O)(=O)N(CC(=O)NC(C)c2ccccc2)c2ccc(C)cc2)cc1OC (configuration not stated),"inconclusive: 2 µM [inhibitor, full curve, poor fit]"
13,CC(=O)Nc1ccc(OCC(O)Cn2c3ccccc3c3ccccc32)c(C)c1 (configuration not stated),"inconclusive: 22.4 µM [inhibitor, partial curve]"
14,Cc1nc(-c2ccc(Cl)cc2)sc1CCNC(=O)C(=O)Nc1ccc2c(c1)OCO2,"inconclusive: 44.7 µM [inhibitor, partial curve]"
15,COc1cc(OC)c(-n2cc(-c3ccc(Cl)cc3)[nH]c2=O)cc1Cl,"inconclusive: 31.6 µM [inhibitor, partial curve]"
16,CCN1C(=NCc2ccc(OC)cc2)N[C@@H](c2ccccc2)C(C(=O)OC)=C1C,"inconclusive: 89.1 µM [inhibitor, partial curve, poor fit]"
17,Cc1ccc(Cn2ccnc2SCC(=O)NCc2ccccc2)cc1,"inconclusive: 10 µM [inhibitor, partial curve, poor fit]"
18,CCOc1ccccc1Nc1sc(C(=O)c2ccccc2)c(N)c1C(=O)Nc1ccc(F)cc1,"inconclusive: 4.47 µM [inhibitor, single point]"
19,O=C(Nc1cccc2ncccc12)c1cc([N+](=O)[O-])ccc1Cl,inactive
20,Cc1ccc(OCC(=O)Nc2ccc(OCc3cc(=O)n4c(C)csc4n3)cc2)cc1C,"inconclusive: 1.26 µM [inhibitor, partial curve]"
21,Cc1ccc2nc(Cl)c(/C=N/Nc3nc(C)cc(C)n3)c(=O)n2c1,inactive

row,Compound,Potency
1,Cc1ccccc1N=Nc1c(O)n(C)c2ccccc12,inactive
2,COc1cccc2c1C(=O)c1c(O)c3c(c(O)c1C2=O)CC(O)(C(C)=O)CC3OC1CC(O)C(O)C(C)O1 (configuration not stated),active: 25.1 µM
3,O=[N+]([O-])c1cc([N+](=O)[O-])c(Oc2ccc(F)cc2)cc1NN1CCCCC1,"inconclusive: 56.2 µM [inhibitor, partial curve, poor fit]"
4,O=C(O)c1cc(-c2ccccc2)nn1CC1CC(c2cccnc2)=NO1 (configuration not stated),"inconclusive: 12.6 µM [inhibitor, partial curve, poor fit]"
5,Cc1cc(C)c2nc(SC3CCOC3=O)cc(C)c2c1 (configuration not stated),"inconclusive: 44.7 µM [inhibitor, partial curve, poor fit]"
6,Cc1ccc(Oc2ccccc2NC(=O)CSCC(=O)Nc2cc(C)on2)cc1,inactive
7,Cc1nn2c(N3CCCC3)c3c(nc2c1-c1ccccc1)CCC3,inactive
8,C[C@@H]1CN([C@@H](C)CO)C(=O)c2cc(Br)cnc2O[C@H]1CN(C)S(=O)(=O)c1ccccc1,"inconclusive: 0.316 µM [inhibitor, full curve]"
9,CN(C)S(=O)(=O)c1ccc(Cl)c(NC(=O)COC(=O)CN2C(=O)NC(C)(C)C2=O)c1,"inconclusive: 39.8 µM [inhibitor, partial curve]"
10,CN(C(=O)CSc1nc2ccccc2c(=O)n1C)C1CCS(=O)(=O)C1 (configuration not stated),"inconclusive: 5.62 µM [inhibitor, partial curve, poor fit]"
11,CCCCN(Cc1cc2cc(C)ccc2[nH]c1=O)C(=O)c1cccc(Cl)c1,inactive
12,Cc1ccc(N2C(=O)CC(c3c[nH]c4ccccc34)C2=O)cc1 (configuration not stated),"inconclusive: 7.08 µM [inhibitor, partial curve]"
13,CCc1ccc(NC(=O)Cn2ncn3c(cc4ccccc43)c2=O)cc1,"inconclusive: 0.251 µM [inhibitor, full curve, poor fit]"
14,COc1ccc(/C=C/c2nc(C#N)c(N3CCCCC3)o2)cc1OC,"inconclusive: 56.2 µM [inhibitor, partial curve, poor fit]"
15,CCOC(=O)C1=CN(Cc2ccco2)S(=O)(=O)NC1c1ccc(C(F)(F)F)cc1 (configuration not stated),"inconclusive: 44.7 µM [inhibitor, partial curve, poor fit]"
16,COc1ccc(Oc2nc3c(c(=O)n(C)c(=O)n3C)n2Cc2ccccc2)cc1,inactive
17,CCC(=O)N1CCc2cc(Br)cc(S(=O)(=O)N3CCCC(C(=O)NCc4ccc(C)cc4)C3)c21 (configuration not stated),"inconclusive: 0.708 µM [inhibitor, full curve, poor fit]"
18,Cc1cccc(NC(=O)CSc2cn(CC(=O)N3CCOCC3)c3ccccc23)c1C,"inconclusive: 0.282 µM [inhibitor, full curve, poor fit]"
19,c1ccc(CCn2nnnc2C(c2cccnc2)N2CCN(c3nc4ccccc4s3)CC2)cc1 (configuration not stated),"inconclusive: 0.501 µM [inhibitor, full curve, poor fit]"
20,CC1(OC(=O)C2CCCC2)C(=O)C=C2C=C(c3ccsc3)OC=C2C1=O (configuration not stated),"inconclusive: 39.8 µM [inhibitor, partial curve]"
21,Cc1cccc(-c2nc(SCc3cc(=O)c4c(C)cc(C)cc4[nH]3)n[nH]2)c1,"inconclusive: 0.251 µM [inhibitor, full curve, poor fit]"

# Reprinted at random: five records from the list.
row,Compound,Potency
10,CN(C(=O)CSc1nc2ccccc2c(=O)n1C)C1CCS(=O)(=O)C1 (configuration not stated),"inconclusive: 5.62 µM [inhibitor, partial curve, poor fit]"
5,O=C(Nc1ccc(CN2CCOCC2)cc1)c1ccc(Cl)cc1,inactive
19,c1ccc(CCn2nnnc2C(c2cccnc2)N2CCN(c3nc4ccccc4s3)CC2)cc1 (configuration not stated),"inconclusive: 0.501 µM [inhibitor, full curve, poor fit]"
15,COc1cc(OC)c(-n2cc(-c3ccc(Cl)cc3)[nH]c2=O)cc1Cl,"inconclusive: 31.6 µM [inhibitor, partial curve]"
7,N#CC(C#N)=C1C=C2C=C(N3CCCCCC3)CCC2CC1 (configuration not stated),active: 3.98 µM

# Carrying on:

row,Compound,Potency
1,Cc1c(C(=O)N/N=C/c2ccccc2)[nH]c2c([N+](=O)[O-])cccc12,"inconclusive: 44.7 µM [inhibitor, partial curve, poor fit]"
2,CCOC(=O)c1cc2c(ccn2C)n1CC(=O)Nc1ccc(F)cc1,inactive
3,Cc1nn(C(C)C(=O)NCc2ccc(OC(C)C)cc2)c(=O)c2c1sc1ccccc12 (configuration not stated),"inconclusive: 112 µM [inhibitor, partial curve, poor fit]"
4,C[C@H]1CN([C@@H](C)CO)C(=O)CCCn2nncc2CO[C@H]1CN(C)S(=O)(=O)c1ccc2c(c1)OCCCO2,"inconclusive: 0.251 µM [inhibitor, full curve, poor fit]"
5,CCCCNc1nc2c(S(=O)(=O)c3ccc(Br)cc3)nnn2c2ccsc12,"inconclusive: 0.1 µM [inhibitor, full curve, poor fit]"
6,CN1CCc2c(sc(N)c2C(=O)c2ccc(Cl)cc2)C1,"inconclusive: 28.2 µM [inhibitor, partial curve]"
7,CN1CCN(c2ccc(NC(=O)c3ccc(-c4ccccc4F)o3)cc2)CC1,inactive
8,C/C(=N\NC(=O)c1c(Br)cnn1C)c1ccc(NC(=O)c2ccc(F)cc2)cc1,"inconclusive: 39.8 µM [inhibitor, partial curve]"
9,CCOC(=O)c1csc(NC(=O)C(C)(C)C)n1,inactive
10,CCN(CC)S(=O)(=O)c1ccc(S(=O)(=O)N2CCN(CCC#N)CC2)cc1,inactive
11,CCN(C(=O)CN1C(=O)c2ccccc2Sc2ccc(C(=O)OC)cc21)c1cccc(C)c1,inactive
12,Cc1cccc(NC(=O)CCNC(=O)c2ccco2)c1,"inconclusive: 14.1 µM [inhibitor, partial curve]"
13,Cc1ccc2oc(C(=O)Nc3c(C(=O)Nc4cccc(Cl)c4)oc4ccccc34)cc(=O)c2c1,"inconclusive: 31.6 µM [inhibitor, partial curve, poor fit]"
14,COc1ccc(Cn2c(-c3ccccc3)nc3c(c(=O)c4ccccc4n3C)c2=O)cc1,"inconclusive: 39.8 µM [inhibitor, partial curve, poor fit]"
15,Nc1c(C(=O)N2CCOCC2)sc(=S)n1-c1ccccc1,inactive
16,CCOC(=O)c1cc(-c2ccc(/C=C3/C(=O)NC(=O)C(C#N)=C3C)o2)ccc1Cl,"inconclusive: 31.6 µM [inhibitor, partial curve]"
17,Cc1nn(-c2ccccc2)c(OC(=O)c2ccccc2)c1S(=O)(=O)c1ccccc1,"inconclusive: 56.2 µM [inhibitor, partial curve, poor fit]"
18,Clc1ccc(C2[C@H]3CN(CC4CCCCC4)[C@H](c4ccccc4)C34CC2(c2ccccc2)C4)cn1 (some centres not stated),"inconclusive: 44.7 µM [inhibitor, partial curve, poor fit]"
19,O=C(NCC1CC1)c1cccc2c1C(=O)c1ccc(N3CCCC3)cc1S2(=O)=O,"inconclusive: 39.8 µM [inhibitor, partial curve]"
20,COc1ccc(N2CCN(C(=O)Nc3cn(CC(C)C)c(=O)c4ccccc34)CC2)cc1,"inconclusive: 50.1 µM [inhibitor, partial curve, poor fit]"
